Results reported in patent EP1767214B1.
No constants are given. Whether binding was seen depends on the method and setting. Some entries that bind do so weakly or less than the wild type.

Sequences of proteins named here, by UniProt entry; tags and fusion partners are left off.
UniProt O60603: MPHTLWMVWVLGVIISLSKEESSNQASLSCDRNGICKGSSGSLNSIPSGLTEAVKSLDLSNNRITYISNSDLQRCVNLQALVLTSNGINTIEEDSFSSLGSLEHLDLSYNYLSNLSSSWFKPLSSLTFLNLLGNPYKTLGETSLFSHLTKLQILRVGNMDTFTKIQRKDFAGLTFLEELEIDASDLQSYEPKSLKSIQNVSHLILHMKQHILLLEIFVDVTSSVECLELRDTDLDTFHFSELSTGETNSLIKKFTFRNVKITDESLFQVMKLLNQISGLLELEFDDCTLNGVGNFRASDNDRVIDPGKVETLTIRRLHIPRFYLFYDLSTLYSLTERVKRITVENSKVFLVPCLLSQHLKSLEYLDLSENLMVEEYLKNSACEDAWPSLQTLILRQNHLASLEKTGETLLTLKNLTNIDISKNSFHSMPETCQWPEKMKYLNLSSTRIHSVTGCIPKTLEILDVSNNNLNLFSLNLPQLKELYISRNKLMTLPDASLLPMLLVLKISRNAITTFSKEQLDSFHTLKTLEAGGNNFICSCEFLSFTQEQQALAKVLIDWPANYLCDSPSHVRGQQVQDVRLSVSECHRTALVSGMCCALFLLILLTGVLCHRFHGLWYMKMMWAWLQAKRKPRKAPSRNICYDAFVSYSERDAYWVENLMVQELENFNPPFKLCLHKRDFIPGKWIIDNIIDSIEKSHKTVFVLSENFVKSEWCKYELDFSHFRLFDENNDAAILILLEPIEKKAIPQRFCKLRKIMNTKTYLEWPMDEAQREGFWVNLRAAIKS
UniProt P43313: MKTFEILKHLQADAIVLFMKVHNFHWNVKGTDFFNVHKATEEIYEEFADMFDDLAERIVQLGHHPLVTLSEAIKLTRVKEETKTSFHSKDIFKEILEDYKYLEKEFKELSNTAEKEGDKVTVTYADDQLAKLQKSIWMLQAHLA

Target: human Toll-like Receptor (TLR)-2 (human) (UniProt O60603)
Test: summary of the experimental results; the underlying test is the HEK-293 TLR cell line assay of section 1.4

Neutrophil Activating Protein of Helicobacter pylori (HP-NAP) (from UniProt P43313 1-144)
binding: binds
